# Results from PubChem BioAssay AID2685 (National Center for Advancing Translational Sciences (NCATS), 2010).
# Screen size: about 320,000 compounds; about 2,100 (0.66%) were called active. Inconclusive results, whose numbers are uncertain, are shown with a selection of clear calls. Calls follow the shape of the dose curve; as a rule, active = well fitted inhibition curve with a large enough effect in the signal ratio, with a control signal flat (not every such curve was filed as active); inconclusive = small, poorly fitted or top-dose-only effect, or effect the other way, or a change in a side signal; inactive = flat fitted curve, though single readings scatter; the % refers to the signal ratio. Potencies beside an inconclusive call are fits to weak or partial responses and may not hold up.
# Test: qHTS Assay for Lipid Storage Modulators in Drosophila S3 Cells
# Settings: BODIPY lipid droplet fluorescence, 18-24 h, cells fed with added oleic acid; lipid storage change, negative = inhibition: at 46.1 µM (top of the series) unless noted
# Procedure, shortened: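 Drosophila S3 cells loaded with oleic acid (400 uM, as added) and compounds at several concentrations; lipid droplets imaged by 488-nm laser-scanning cytometry, 500–530 nm intensity and object ratio to cell channel. Percent activity normalized to 20 uM Triacsin C.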
# % is scaled to controls: 0 for no effect and ±100 for the full control effect; potency is read from the fitted curve at half-maximal effect.
Compound,"lipid storage change, negative = inhibition",Potency
CCOC(=O)N1CCN(C(=O)c2oc3ccc(S(=O)(=O)N4CC(C)CC(C)C4)cc3c2C)CC1 (stereo not drawn),inconclusive: -29.4%,–
CS(=O)(=O)N(CC(=O)N1CCCC1)c1ccc(Cl)cc1,inconclusive: -61.8%,–
COc1ccccc1OCCC(=O)NNC(=O)c1ccccc1F,–,"inconclusive: 29.1 µM [falling, partial curve, poor fit]"
O=C(O)COc1nsnc1N1CCOCC1,inconclusive: -9.72%,–
COc1cccc(CN2CCN(Cc3cccc4c3OCO4)CC2CCO)c1 (stereo not drawn),inconclusive: 9.28%,–
CCCn1c(=O)n(C)c(=O)c2c(SCC(=O)NCc3ccco3)nc(C3CC3)nc21,inconclusive: -8.57%,–
C#CCOC(=O)CCC(=O)NCCc1ccccc1,–,"inconclusive: 0.116 µM [falling, full curve, poor fit]"
CN(C)S(=O)(=O)N1CCCC(C(=O)c2ccc(-c3ccccc3)c(F)c2)C1 (stereo not drawn),inconclusive: -25.6%,–
C=CCOc1ccc(CN(C)C(=O)c2ccc(CNS(=O)(=O)c3ccc(C)c(C)c3)cc2)cc1,inconclusive: -84.8%,–
CCOCCCN(Cc1ccco1)C(=O)c1cc2c(=O)[nH]c3ccc(C)cc3c2s1,–,"inconclusive: 29.1 µM [falling, single point]"
CS(=O)(=O)NCCCNc1ccc(C(F)(F)F)cc1[N+](=O)[O-],inactive: -1.44%,–
COCCn1c(-c2ccc(OC)c(OC)c2)nc2ccccc21,–,"inconclusive: 1.84 µM [rising, partial curve]"
CC(C)(C)CC(=O)NCCCN1CCOCC1,inconclusive: -28.4%,–
CCn1c(N2CCN(S(=O)(=O)c3ccccc3)CC2)nc2ccccc21,inconclusive: -76.5%,–
CC1CCc2cc(F)ccc2N1C(=O)CSc1nnc2c(n1)[nH]c1ccccc12 (stereo not drawn),inconclusive: -30.1%,–
Cc1ccc(Nc2nnc(SCC3CCCCO3)s2)cc1 (stereo not drawn),inconclusive: 30.7%,–
CNC(=S)N/N=C/c1cn(CCOc2cccc(OC)c2)c2ccccc12,inconclusive: 26.7%,–
O=C(CSc1ccc2c(c1)OCCO2)Nc1ccc2c(c1)OCO2,inconclusive: 51.3%,–
O=C(COC(=O)c1ccc2ncsc2c1)Nc1ncc(Cl)cc1Cl,inconclusive: -48.9%,–
Cn1cc([N+](=O)[O-])c(C(=O)NC2CCCCCC2)n1,inconclusive: -14.9%,–
COc1ccc(NC(=O)C#Cc2ccccc2)cc1OC,–,"inconclusive: 29.1 µM [falling, single point]"
CC(C)C(C)(C#N)NC(=O)CSc1nc2scc(-c3ccccc3)c2c(=O)[nH]1 (stereo not drawn),inconclusive: 22.5%,–
Cc1cccc(Oc2ccc(C(=O)NC3CCSC3=O)cn2)c1C (stereo not drawn),–,"inconclusive: 18.4 µM [falling, single point]"
O=C(Nc1ccccc1)NC(Cc1ccc(O)cc1)C(=O)O (stereo not drawn),inconclusive: -37.3% [at 0.369 µM],–
CC1(C)Cc2c(cnn2-c2ccc(F)cc2)C(NC(=O)Cn2cncn2)C1 (stereo not drawn),–,"inconclusive: 29.1 µM [falling, single point]"
CCCn1ncc(/C=N/O)c1C,inconclusive: 28.6%,–

# Reprinted from the results shown (17 entries):
Compound,"lipid storage change, negative = inhibition",Potency
CCOCCCN(Cc1ccco1)C(=O)c1cc2c(=O)[nH]c3ccc(C)cc3c2s1,–,"inconclusive: 29.1 µM [falling, single point]"
CS(=O)(=O)NCCCNc1ccc(C(F)(F)F)cc1[N+](=O)[O-],inactive: -1.44%,–
COCCn1c(-c2ccc(OC)c(OC)c2)nc2ccccc21,–,"inconclusive: 1.84 µM [rising, partial curve]"
CC(C)(C)CC(=O)NCCCN1CCOCC1,inconclusive: -28.4%,–
CCn1c(N2CCN(S(=O)(=O)c3ccccc3)CC2)nc2ccccc21,inconclusive: -76.5%,–
CC1CCc2cc(F)ccc2N1C(=O)CSc1nnc2c(n1)[nH]c1ccccc12 (stereo not drawn),inconclusive: -30.1%,–
Cc1ccc(Nc2nnc(SCC3CCCCO3)s2)cc1 (stereo not drawn),inconclusive: 30.7%,–
CNC(=S)N/N=C/c1cn(CCOc2cccc(OC)c2)c2ccccc12,inconclusive: 26.7%,–
O=C(CSc1ccc2c(c1)OCCO2)Nc1ccc2c(c1)OCO2,inconclusive: 51.3%,–
O=C(COC(=O)c1ccc2ncsc2c1)Nc1ncc(Cl)cc1Cl,inconclusive: -48.9%,–
Cn1cc([N+](=O)[O-])c(C(=O)NC2CCCCCC2)n1,inconclusive: -14.9%,–
COc1ccc(NC(=O)C#Cc2ccccc2)cc1OC,–,"inconclusive: 29.1 µM [falling, single point]"
CC(C)C(C)(C#N)NC(=O)CSc1nc2scc(-c3ccccc3)c2c(=O)[nH]1 (stereo not drawn),inconclusive: 22.5%,–
Cc1cccc(Oc2ccc(C(=O)NC3CCSC3=O)cn2)c1C (stereo not drawn),–,"inconclusive: 18.4 µM [falling, single point]"
O=C(Nc1ccccc1)NC(Cc1ccc(O)cc1)C(=O)O (stereo not drawn),inconclusive: -37.3% [at 0.369 µM],–
CC1(C)Cc2c(cnn2-c2ccc(F)cc2)C(NC(=O)Cn2cncn2)C1 (stereo not drawn),–,"inconclusive: 29.1 µM [falling, single point]"
CCCn1ncc(/C=N/O)c1C,inconclusive: 28.6%,–

# More structures follow.

Compound,"lipid storage change, negative = inhibition",Potency
O=C(c1ccco1)N1CCN(C(=O)c2oc(=O)c3ccccc3c2-c2ccccc2)CC1,–,"inconclusive: 7.31 µM [falling, partial curve]"
Cc1ccc(S(=O)(=O)N(C)c2ccc(C(=O)N3CCOCC3)cc2)cc1,–,"inconclusive: 29.1 µM [activator, single point]"
Cc1nc(NC(=O)/C=C/c2ccccc2)sc1C(=O)Nc1cccc(Cl)c1,inconclusive: 15.5%,–
CCCN(CCO)Cc1ccc(Cl)c(Cl)c1,–,"inconclusive: 29.1 µM [falling, single point]"
CC(Nc1cc(N2CCN(S(C)(=O)=O)CC2)ccc1[N+](=O)[O-])c1ccccc1 (stereo not drawn),inconclusive: -1.75%,–
COc1ccc(C(C#N)Nc2ccccc2)cc1 (stereo not drawn),inconclusive: 33%,–
CC(=O)Nc1ccc(C(=O)OCC(=O)N2CCN(C(=O)c3ccco3)CC2)cc1,–,"inconclusive: 0.164 µM [activator, full curve]"
O=C(CSc1nnc(Cc2cc(=O)[nH]c(=O)[nH]2)n1-c1ccccc1)N1CCCc2ccccc21,inconclusive: -2.83%,–
C#CCOCCOCCOCCNc1nc(N2CCN(C(=O)CCCCCCCCCCNC(=O)[C@H](CCCCN)n3cc(CCCC(=O)O)nn3)CC2)nc(N2CCN(C(=O)CCCCCCCCCCNC(=O)[C@H](CCCCN)n3cc(CCCC(=O)O)nn3)CC2)n1,inconclusive: -18.8%,–
CC(C)CC(=O)Nc1ccc(-c2nnn(CC(=O)NCc3ccco3)n2)cc1,inconclusive: -21.5%,–
CC1(NC(=O)NCc2ccco2)CCS(=O)(=O)C1 (stereo not drawn),–,"inconclusive: 0.058 µM [falling, full curve, poor fit]"
N#CC1(N2CCN(C(=O)c3ccccc3)CC2)CCCCC1,inconclusive: 74.2%,–
CC(C)CCNC(=O)c1cc([N+](=O)[O-])ccc1N1CCOCC1,inactive: -1.77%,–
O=C1CCCN1CCCn1cnc2c([nH]c3ccc(F)cc32)c1=O,inconclusive: 2.94%,–
Fc1ccc(CCNC(=S)Nc2ccc(F)c(Cl)c2)cc1,–,"inconclusive: 29.1 µM [falling, single point]"
COc1ccc(Nc2ncnc3c2c(C)c(C)n3CCCN(C)C)cc1,inconclusive: 66.6%,–
CC(C)CCNC(=O)C(C)N(Cc1ccc(F)cc1)C(=O)c1ccc(CN2CCCCC2)o1 (stereo not drawn),inconclusive: -37.2%,–
CCc1ccccc1NC(=O)c1cc(-c2cccs2)on1,–,"inconclusive: 8.2 µM [activator, partial curve, poor fit]"
Cn1c(N)c(C(=O)COC(=O)COc2ccc(Cl)cc2)c(=O)n(C)c1=O,–,"inconclusive: 4.61 µM [activator, full curve]"
CCOc1ccc(C(=O)N2CCN(c3ccccn3)CC2)cc1,inconclusive: 12%,–
COc1ccccc1NC(=O)COn1nnc2ccc(S(=O)(=O)N3CCOCC3)cc21,inconclusive: 3.85%,–
COc1ccc(NC(=O)c2cc3ccccc3o2)cc1,inconclusive: 21.3%,–
COc1cccc(CNc2ccc(C)c(Cl)c2)c1,inconclusive: 0.205%,–
COc1ccc(CNC(=O)CCC(=O)c2ccc(C)cc2)cc1OC,inconclusive: 21.8%,–
CCCCOC(=O)C1CCC[C@@H](C)N1 (stereo partly drawn),inconclusive: 30.7%,–
CCOC(=O)C1CCN(CC(=O)Nc2c(C(=O)OC)[nH]c3cccc(Cl)c23)CC1,inconclusive: 21.6%,–

Compound,"lipid storage change, negative = inhibition",Potency
COCc1[nH][nH]c(=O)c1C=Nc1ccc(F)cc1F,–,"inconclusive: 0.92 µM [cytotoxic, full curve, poor fit]"
O=C(N/C(=C\c1ccc2c(c1)OCO2)C(=O)N1CCOCC1)c1cccs1,–,"inconclusive: 16.4 µM [activator, single point]"
COc1ccc(NC(=O)CSc2nccn2Cc2ccco2)c(OC)c1,inconclusive: 30.1%,–
COc1ccc(Br)cc1C(=O)N/N=C/c1cccnc1,inconclusive: 15.5%,–
NC(=O)NC(=O)CN1C(=O)NC2(CCOc3ccccc32)C1=O (stereo not drawn),–,"inconclusive: 2.31 µM [activator, partial curve]"
O=C(Nc1cc(Br)ccc1O)c1cnn2c(C(F)F)cc(C3CC3)nc12,–,"inconclusive: 6.51 µM [activator, partial curve, poor fit]"
COc1cc(CNCCCN2CCOCC2)ccc1OCC(=O)Nc1cccc(C(F)(F)F)c1,inconclusive: 23.7%,–
Cc1c(C(=O)O)sc(S(=O)(=O)N2CCN(C(=O)Cc3ccccc3)CC2)c1C(=O)O,inconclusive: -12.9%,–
Cc1ccc(CN=C2Nc3ccccc3CS2)cc1,inconclusive: -16.7%,–
COC(=O)N/N=C/c1cc(C)n(-c2ccc(F)cc2)c1C,inconclusive: 1.45%,–
Cc1cc(Br)ccc1NC(=S)N1CCOCC1,inconclusive: 11%,–
CSc1ccc(/C=N/n2c(C)cc(C)cc2=O)cc1,–,"inconclusive: 0.731 µM [falling, full curve, poor fit]"
CCc1cccc2c(C(=O)C(NC(C)CC)c3ccccc3)c[nH]c12 (stereo not drawn),inconclusive: -4.7%,–
COc1cc2c(N3CCOCC3)cc(O)c(CC(=O)Nc3ccccc3)c2cc1OC,inconclusive: 46.1%,–
CCOc1ccc(CCNS(=O)(=O)c2ccc3c(c2)N(C(C)=O)CCO3)cc1OCC,inconclusive: 44.1%,–
O=C(COC(=O)c1ccc(F)c(S(=O)(=O)N2CCCCC2)c1)NCc1ccc(F)cc1,inconclusive: 7.09%,–
Cc1cc(C(=O)NNc2ccc(C(C)C)cc2)n(C(C)(C)C)n1,inconclusive: -9.2%,–
CCN(CC(=O)Nc1ccccc1C(F)(F)F)C(=O)c1ccc(N2C(=O)CCC2=O)cc1,inconclusive: 4.58%,–
CCc1cc(C(=O)N2CCN(S(=O)(=O)c3ccccc3F)CC2)sc1C,inconclusive: -6.35%,–
CCOc1ccc(Nc2nc3c(C)cccc3cc2C#N)cc1,inconclusive: -41%,–
Cc1ccc(-c2nnc(SCC(=O)N3CCN(c4ccccc4)CC3)o2)cc1,–,"inconclusive: 29.1 µM [activator, single point]"
CCC(=O)Nc1ccc(S(=O)(=O)Nc2ncccn2)cc1,inconclusive: -5.53%,–
COCc1cc(C)nc(OC)c1C(N)=O,inconclusive: -72%,–
O=C(NCc1nc2ccccc2[nH]1)C1=C[C@@H](C2CC2)C[C@@H](OCc2ccc(CO)cc2)O1,inconclusive: 16%,–
CCNC(=O)COc1cc(C)c(Cl)c(C)c1,–,"inconclusive: 1.03 µM [activator, partial curve]"
CCCN1C(=O)/C(=C/c2nc3ccccc3c(=O)[nH]2)c2cc(C)ccc21,inconclusive: 6.31%,–
